These are yes or no findings as the source states them, for the method shown. In cells and extracts the contact can be indirect. Some entries that bind do so weakly or less than the wild type.
Experiments:
[1] = target: MYC-PLK1^K82R (kinase-defective, dominant negative) (UniProt P53350); assay: co-IP; HeLa cells overexpressing MYC-PLK1 (WT) or MYC-PLK1^K82R, full medium; IP with PLK1 or control (mock) antibodies, immunoblot for endogenous MTOR, RPTOR and LAMP2
[2] = target: MYC-tagged, wild-type PLK1 [MYC-PLK1 (WT)] (UniProt P53350); assay: as above
[3] = target: PLK1 (polo like kinase 1) (human (endogenous in HeLa)) (UniProt P53350); assay: co-IP; endogenous PLK1 precipitated with a PLK1 antibody or control (mock) IgG from HeLa lysates (40 mM HEPES, 120 mM NaCl, 0.3% CHAPS, pH 7.5; 4°C; Protein G Dynabeads), immunoblot; cells in full medium, or starved for amino acids (30 min) or for amino acids and growth factors (16 h), with shRPTOR or shControl, Torin1 or BI2536

Protein sequences, listed by entry. Tags and fused reporters are not part of them.
UniProt Q8N122: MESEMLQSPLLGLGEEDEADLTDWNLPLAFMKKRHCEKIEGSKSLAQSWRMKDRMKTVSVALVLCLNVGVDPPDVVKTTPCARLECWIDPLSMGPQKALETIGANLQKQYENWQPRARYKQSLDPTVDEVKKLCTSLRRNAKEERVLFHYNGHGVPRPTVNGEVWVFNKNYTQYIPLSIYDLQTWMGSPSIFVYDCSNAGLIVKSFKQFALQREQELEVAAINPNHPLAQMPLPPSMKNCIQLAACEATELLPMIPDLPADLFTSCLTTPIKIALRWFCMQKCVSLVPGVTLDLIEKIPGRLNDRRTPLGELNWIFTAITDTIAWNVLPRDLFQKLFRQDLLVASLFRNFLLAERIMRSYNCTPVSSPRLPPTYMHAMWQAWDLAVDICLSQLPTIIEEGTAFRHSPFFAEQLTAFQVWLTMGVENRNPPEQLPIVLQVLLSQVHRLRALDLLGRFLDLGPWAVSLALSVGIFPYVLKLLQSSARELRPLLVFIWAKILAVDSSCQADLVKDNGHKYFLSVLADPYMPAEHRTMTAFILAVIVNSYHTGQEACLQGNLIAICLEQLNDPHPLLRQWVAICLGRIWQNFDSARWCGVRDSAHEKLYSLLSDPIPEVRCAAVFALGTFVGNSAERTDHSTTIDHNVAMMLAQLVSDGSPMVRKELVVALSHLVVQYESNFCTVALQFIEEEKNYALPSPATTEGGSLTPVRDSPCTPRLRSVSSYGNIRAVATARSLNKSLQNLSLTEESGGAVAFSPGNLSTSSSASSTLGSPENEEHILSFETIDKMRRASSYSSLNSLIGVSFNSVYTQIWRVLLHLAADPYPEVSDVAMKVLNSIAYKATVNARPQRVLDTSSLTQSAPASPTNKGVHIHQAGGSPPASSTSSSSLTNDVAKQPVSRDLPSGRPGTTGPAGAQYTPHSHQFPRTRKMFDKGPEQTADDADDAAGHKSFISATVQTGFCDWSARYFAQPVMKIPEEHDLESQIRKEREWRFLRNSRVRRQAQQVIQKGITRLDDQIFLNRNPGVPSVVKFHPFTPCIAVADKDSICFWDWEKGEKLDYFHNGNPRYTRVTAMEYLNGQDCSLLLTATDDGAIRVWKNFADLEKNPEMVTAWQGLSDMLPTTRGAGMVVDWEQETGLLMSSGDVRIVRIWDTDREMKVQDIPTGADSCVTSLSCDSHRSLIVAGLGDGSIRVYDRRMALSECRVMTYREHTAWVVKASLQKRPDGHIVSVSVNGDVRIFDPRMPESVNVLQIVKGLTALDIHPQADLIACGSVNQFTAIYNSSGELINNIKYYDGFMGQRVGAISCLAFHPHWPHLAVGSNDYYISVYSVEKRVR

Measured: binding

RPTOR/RAPTOR (regulatory associated protein of MTOR complex 1) (from UniProt Q8N122 1-1335)
binds: all assays above

— article PMC5361591
